# From the supplement of paper PMC4604168 (melanoma cell lines)
# The other results are listed elsewhere or left out. Repeats are few or missing, and single values can be far off.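 The apoptosis fraction was the count of cleaved-PARP antibody-stained nuclei relative to all DNA-stained nuclei, imaged in 1,536-well plates. Screening doses were set so most cells survived, and baseline and induced cleaved-PARP levels vary greatly across cell lines.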
# Legend:
# Assay in all cases: cleaved PARP positive nuclei fraction relative to DMSO control; melanoma cells; higher = more apoptosis
# Details in all cases: library dose: low library concentration; 72 h
# 501Mel = system: 501Mel
# A101D = system: A101D
# A2058 = system: A2058
# A375 = system: A375
# C32 = system: C32
# CBRC008 = system: CBRC008 (line from a melanoma biopsy)
# CBRC013 = system: CBRC013 (line from a melanoma biopsy)
# CBRC014 = system: CBRC014 (line from a melanoma biopsy)
# CBRC016 = system: CBRC016 (line from a melanoma biopsy)
# CBRC017 = system: CBRC017 (line from a melanoma biopsy)
# COLO792 = system: COLO792
# COLO800 = system: COLO800
# COLO829 = system: COLO829
# G361 = system: G361
# IPC-298 = system: IPC-298
# IST-MEL1 = system: IST-MEL1
# LB2518-MEL = system: LB2518-MEL
# LOXIMVI = system: LOXIMVI
# MEL-HO = system: MEL-HO
# CBRC034 = system: CBRC034 (line from a melanoma biopsy)
Structure (SMILES),cleaved PARP positive nuclei fraction (501Mel),cleaved PARP positive nuclei fraction (A101D),cleaved PARP positive nuclei fraction (A2058),cleaved PARP positive nuclei fraction (A375),cleaved PARP positive nuclei fraction (C32),cleaved PARP positive nuclei fraction (CBRC008),cleaved PARP positive nuclei fraction (CBRC013),cleaved PARP positive nuclei fraction (CBRC014),cleaved PARP positive nuclei fraction (CBRC016),cleaved PARP positive nuclei fraction (CBRC017),cleaved PARP positive nuclei fraction (COLO792),cleaved PARP positive nuclei fraction (COLO800),cleaved PARP positive nuclei fraction (COLO829),cleaved PARP positive nuclei fraction (G361),cleaved PARP positive nuclei fraction (IPC-298),cleaved PARP positive nuclei fraction (IST-MEL1),cleaved PARP positive nuclei fraction (LB2518-MEL),cleaved PARP positive nuclei fraction (LOXIMVI),cleaved PARP positive nuclei fraction (MEL-HO),cleaved PARP positive nuclei fraction (CBRC034)
"C=CCn1c(=O)c2cnc(Nc3ccc(N4CCN(C)CC4)cc3)nc2n1-c1cccc(C(C)(C)O)n1 + CN(C)S(=O)(=O)c1ccc2c(c1)/C(=C/c1cc3c([nH]1)CCCC3)C(=O)N2 [SU6656] (first compound 0.02 µM, partner dose 0.4 µM)",198%,117%,70.7%,217%,83.6%,91.7%,135%,122%,34%,88.5%,115%,137%,105%,138%,23.5%,86.7%,56.7%,131%,200%,–
"C=CCNC1=C2C[C@@H](C)C[C@H](OC)[C@H](O)[C@@H](C)/C=C(\C)[C@H](OC(N)=O)[C@@H](OC)/C=C\C=C(/C)C(=O)NC(=CC1=O)C2=O [Tanespimycin] + NCC(=O)Nc1ccc(-n2nc(C(F)(F)F)cc2-c2ccc3c(ccc4ccccc43)c2)cc1 [OSU03012] (first compound 0.002 µM, partner dose 1 µM)",338%,149%,106%,1170%,137%,263%,131%,94.3%,130%,115%,198%,109%,103%,83.3%,156%,158%,96.2%,120%,95.6%,–
"Clc1ccc(Nc2nnc(Cc3ccncc3)c3ccccc23)cc1 [vatalanib] + OCCn1cc(-c2cnc3nnn(Cc4ccc5ncccc5c4)c3n2)cn1 [PF04217903] (first compound 2 µM, partner dose 1 µM)",97.3%,154%,36.4%,52%,207%,56.7%,96.2%,128%,111%,117%,74.8%,95%,97.1%,68.8%,147%,48.9%,96.6%,28.9%,234%,–
"OCCn1cc(-c2cnc3nnn(Cc4ccc5ncccc5c4)c3n2)cn1 + CN(C)S(=O)(=O)c1ccc2c(c1)/C(=C/c1cc3c([nH]1)CCCC3)C(=O)N2 [SU6656] (first compound 1 µM, partner dose 0.4 µM)",84.4%,41.7%,73.7%,20.2%,274%,177%,100%,85.1%,121%,98.7%,115%,48.7%,61.5%,106%,98.6%,157%,94.2%,41.8%,26.6%,–
"Nc1cccc2c1CN(C1CCC(=O)NC1=O)C2=O (stereo not drawn) [lenalidomide] + O=C(Nc1cccc(Cl)c1)Nc1ncc(CCNc2ncnc3ccsc23)s1 [SNS314] (first compound 1 µM, partner dose 0.0008 µM)",49.5%,80.2%,91.5%,33.9%,84.5%,243%,92.3%,106%,77.9%,70.9%,86.4%,91.4%,106%,97.7%,88.7%,53.1%,297%,220%,124%,–
"COCC[n+]1c2c(n(Cc3cnccn3)c1C)C(=O)c1ccccc1C2=O + Nc1cccc2c1CN(C1CCC(=O)NC1=O)C2=O [lenalidomide] (first compound 0.0004 µM, partner dose 1 µM)",63.8%,99.8%,83%,237%,75.1%,746%,–,92%,203%,79%,86.7%,29.8%,127%,52.7%,91.2%,57.1%,116%,89.4%,91.8%,63.9%
"C=CCNC1=C2C[C@@H](C)C[C@H](OC)[C@H](O)[C@@H](C)/C=C(\C)[C@H](OC(N)=O)[C@@H](OC)/C=C\C=C(/C)C(=O)NC(=CC1=O)C2=O [Tanespimycin] + Cc1nc(Nc2ncc(C(=O)Nc3c(C)cccc3Cl)s2)cc(N2CCN(CCO)CC2)n1 [dasatanib] (first compound 0.002 µM, partner dose 0.004 µM)",111%,48.8%,152%,70.1%,157%,105%,–,111%,56.3%,150%,95.2%,88.9%,143%,119%,180%,140%,99.9%,141%,35.5%,241%
"C=CCNC1=C2C[C@@H](C)C[C@H](OC)[C@H](O)[C@@H](C)/C=C(\C)[C@H](OC(N)=O)[C@@H](OC)/C=C\C=C(/C)C(=O)NC(=CC1=O)C2=O [Tanespimycin] + Cn1c(Nc2ccc(C(F)(F)F)cc2)nc2cc(Oc3ccnc(-c4ncc(C(F)(F)F)[nH]4)c3)ccc21 [CHIR265] (first compound 0.002 µM, partner dose 0.08 µM)",266%,147%,109%,132%,83.5%,794%,–,139%,248%,142%,438%,137%,75.9%,173%,128%,66.1%,212%,91.5%,164%,539%
"Clc1ccc(Nc2nnc(Cc3ccncc3)c3ccccc23)cc1 [vatalanib] + Nc1cccc2c1CN(C1CCC(=O)NC1=O)C2=O [lenalidomide] (first compound 2 µM, partner dose 1 µM)",78.4%,85.6%,81.2%,139%,72%,125%,–,111%,139%,135%,135%,66.5%,132%,118%,87.2%,402%,98.3%,235%,88.6%,47.3%
"Clc1ccc(Nc2nnc(Cc3ccncc3)c3ccccc23)cc1 [vatalanib] + Cc1nc(Nc2ncc(C(=O)Nc3c(C)cccc3Cl)s2)cc(N2CCN(CCO)CC2)n1 [dasatanib] (first compound 2 µM, partner dose 0.004 µM)",112%,55.9%,165%,217%,284%,34.6%,–,126%,184%,270%,208%,149%,159%,64.1%,179%,214%,108%,492%,142%,159%
"Nc1cccc2c1CN(C1CCC(=O)NC1=O)C2=O (stereo not drawn) [lenalidomide] + Cn1nnc2c(C(N)=O)ncn2c1=O [temozolomide] (first compound 1 µM, partner dose 2 µM)",71.3%,102%,57.9%,138%,75.9%,128%,–,95.6%,106%,103%,88.4%,159%,118%,144%,79.6%,129%,96%,128%,63.5%,50.8%
"CC(=O)c1c(C)c2cnc(Nc3ccc(N4CCNCC4)cn3)nc2n(C2CCCC2)c1=O [palbociclib] + OCc1c[nH]c2ccccc12 [Indole-3-carbinol] (first compound 0.04 µM, partner dose 0.8 µM)",95%,79.1%,42.9%,80.7%,193%,82.6%,–,118%,254%,117%,48.3%,42.3%,156%,120%,141%,160%,100%,120%,157%,70.2%
"Clc1ccc(Nc2nnc(Cc3ccncc3)c3ccccc23)cc1 [vatalanib] + Cn1nnc2c(C(N)=O)ncn2c1=O [temozolomide] (first compound 2 µM, partner dose 2 µM)",107%,99.1%,140%,194%,79.6%,52.1%,–,139%,129%,111%,145%,105%,19.2%,132%,178%,68.6%,59.7%,504%,22.1%,139%
"C=CCNC1=C2C[C@@H](C)C[C@H](OC)[C@H](O)[C@@H](C)/C=C(\C)[C@H](OC(N)=O)[C@@H](OC)/C=C\C=C(/C)C(=O)NC(=CC1=O)C2=O [Tanespimycin] + C[C@]1(c2nc3c(C(N)=O)cccc3[nH]2)CCCN1 [Veliparib] (first compound 0.002 µM, partner dose 1.4 µM)",165%,48.8%,205%,90.9%,353%,53.4%,–,83.7%,172%,111%,282%,43.1%,171%,56.8%,43.7%,314%,117%,14.9%,163%,77%
"Clc1ccc(Nc2nnc(Cc3ccncc3)c3ccccc23)cc1 [vatalanib] + C[C@]1(c2nc3c(C(N)=O)cccc3[nH]2)CCCN1 [Veliparib] (first compound 2 µM, partner dose 1.4 µM)",120%,231%,93.5%,123%,75.7%,40.5%,–,127%,124%,139%,149%,155%,94.2%,133%,151%,259%,98.6%,200%,40.2%,192%
"O=C(Nc1cccc(Cl)c1)Nc1ncc(CCNc2ncnc3ccsc23)s1 + COc1cc2c(Oc3ccc4[nH]c(C)cc4c3F)ncnc2cc1OCCCN1CCCC1 [cediranib] (first compound 0.0008 µM, partner dose 0.4 µM)",73%,77.7%,85.4%,90.2%,206%,53%,167%,57.1%,93.4%,73.4%,159%,134%,126%,103%,21.7%,104%,89.8%,61.2%,125%,–
"CC(=O)c1c(C)c2cnc(Nc3ccc(N4CCNCC4)cn3)nc2n(C2CCCC2)c1=O [palbociclib] + Cn1nnc2c(C(N)=O)ncn2c1=O [temozolomide] (first compound 0.04 µM, partner dose 2 µM)",97%,151%,236%,155%,456%,72.4%,–,99%,36.4%,96.2%,157%,99.1%,125%,179%,47.6%,67.9%,132%,49.1%,150%,62.7%

# 2 entries picked at random from the list so far, as already listed:
Structure (SMILES),cleaved PARP positive nuclei fraction (501Mel),cleaved PARP positive nuclei fraction (A101D),cleaved PARP positive nuclei fraction (A2058),cleaved PARP positive nuclei fraction (A375),cleaved PARP positive nuclei fraction (C32),cleaved PARP positive nuclei fraction (CBRC008),cleaved PARP positive nuclei fraction (CBRC013),cleaved PARP positive nuclei fraction (CBRC014),cleaved PARP positive nuclei fraction (CBRC016),cleaved PARP positive nuclei fraction (CBRC017),cleaved PARP positive nuclei fraction (COLO792),cleaved PARP positive nuclei fraction (COLO800),cleaved PARP positive nuclei fraction (COLO829),cleaved PARP positive nuclei fraction (G361),cleaved PARP positive nuclei fraction (IPC-298),cleaved PARP positive nuclei fraction (IST-MEL1),cleaved PARP positive nuclei fraction (LB2518-MEL),cleaved PARP positive nuclei fraction (LOXIMVI),cleaved PARP positive nuclei fraction (MEL-HO),cleaved PARP positive nuclei fraction (CBRC034)
"CC(=O)c1c(C)c2cnc(Nc3ccc(N4CCNCC4)cn3)nc2n(C2CCCC2)c1=O [palbociclib] + Cn1nnc2c(C(N)=O)ncn2c1=O [temozolomide] (first compound 0.04 µM, partner dose 2 µM)",97%,151%,236%,155%,456%,72.4%,–,99%,36.4%,96.2%,157%,99.1%,125%,179%,47.6%,67.9%,132%,49.1%,150%,62.7%
"Clc1ccc(Nc2nnc(Cc3ccncc3)c3ccccc23)cc1 [vatalanib] + Cn1nnc2c(C(N)=O)ncn2c1=O [temozolomide] (first compound 2 µM, partner dose 2 µM)",107%,99.1%,140%,194%,79.6%,52.1%,–,139%,129%,111%,145%,105%,19.2%,132%,178%,68.6%,59.7%,504%,22.1%,139%
